The list does not hold the whole screen: it is rich in T/C values a quarter to a half above the control, in often repeated tests (any T/C) and in doses without a T/C. Further doses and runs are listed elsewhere. T/C is the treated group as % of the vehicle group. Some doses have a count of surviving animals in place of a T/C: the source files T/C as zero there, which appears to mark a toxic dose or a test without result, not a measured value. Some survivor counts are full or nearly so, which does not show that the dose was tolerated: survival well below the control is almost never listed, so the zero probably covers shortened survival too. Survivors were counted at the toxicity check, usually on the fifth day, unless a day is given; later deaths do not show. Schedules are NCI's codes, taken here to give the interval after Q, in days (D) or hours (H), and the number of doses after X. Some schedule codes hold Z or #, which are not explained here. Some entries hold several experiments; the values are given in rising order. Some structures stand for samples that the source files as different forms (salt, stereo form or complex); doses refer to the form tested. Where survival is the endpoint, the PubChem record calls one and a half times the control and up active, and a quarter to a half above the control has no call in these data; cut-offs in other NCI protocols can differ. Some T/C values are followed by the survivors on the day toxicity was checked, most often the fifth; without a count, all were alive then. Starred links: 1 amine or outer side, 2 acyl side, 3 side chain; linkers in the order of their positions; H or OH if unused. Positions of bridges follow the written chain, without caps; N, C: chain ends. Non-standard residues stand in square brackets, D forms with d. Residues, ends and D or L forms follow the SMILES beside them. Chains are numbered I, II in the order given. Actinocin(9to1) = Cc1c2oc3c(C)ccc(C(=O)[*:1])c3nc-2c(C(=O)[*:2])c(N)c1=O; aThr = C[C@H](O)[C@H](N)C(=O)O; NMeV = CN[C@H](C(=O)O)C(C)C; Sar = CNCC(=O)O
Test system: BDF1 mice, L1210/MTX-resistant leukemia ip, survival T/C
Assay: NCI In Vivo Anticancer Drug Screen. Data for tumor model L1210 Leukemia resistant to Methotrexate; NSC 740 (intraperitoneal) in B6D2F1 (BDF1) mice
Conditions: T/C endpoint: mean survival time, higher T/C = longer survival
Method: The antitumor activity of compounds was measured in mice bearing transplantable tumors. Survival or tumor size were measured and the results are expressed as the measurement made in the treated group (T) divided by the measurement made in the vehicle treated control group (C). The tumor model used in this assay is L1210 Leukemia resistant to Methotrexate; NSC 740 (intraperitoneal) in B6D2F1 (BDF1) mice

[1] = dose: 25.0 mg/kg/injection, schedule: Q01DX010 (ip), vehicle: saline
[2] = dose: 50.0 mg/kg/injection, schedule: Q01DX Z (ip), vehicle: other
[3] = dose: 25.0 mg/kg/injection, schedule: Q01DX Z (ip), vehicle: saline
[4] = dose: 50.0 mg/kg/injection, schedule: Q01DX Z (ip), vehicle: saline
[5] = dose: 75.0 mg/kg/injection, schedule: Q01DX Z (ip), vehicle: saline
[6] = dose: 25.0 micrograms/kg/injection, schedule: Q01DX Z (ip), vehicle: saline
[7] = dose: 300.0 mg/kg/injection, schedule: Q01DX Z (ip), vehicle: saline
[8] = dose: 125.0 mg/kg/injection, schedule: Q01DX Z (ip), vehicle: saline
[9] = dose: 250.0 mg/kg/injection, schedule: Q01DX Z (ip), vehicle: saline
[10] = dose: 500.0 mg/kg/injection, schedule: Q01DX Z (ip), vehicle: saline
[11] = dose: 1000.0 mg/kg/injection, schedule: Q01DX Z (ip), vehicle: saline

For `CS(=O)(=O)OCCCCOS(C)(=O)=O`, the survivor count (dose: 1.5 mg/kg/injection, schedule: Q01DX Z (ip), vehicle: methylcellulose (MC)) was 5 of 6, the survivor count (dose: 3.0 mg/kg/injection, schedule: Q01DX Z (ip), vehicle: methylcellulose (MC)) was 3 of 6 and the survivor count (dose: 3.1 mg/kg/injection, schedule: Q01DX Z (ip), vehicle: methylcellulose (MC)) was 6 of 6. The survivor count (dose: 6.3 mg/kg/injection, schedule: Q01DX Z (ip), vehicle: methylcellulose (MC)) was 3 of 6, the survivor count (dose: 12.5 mg/kg/injection, schedule: Q01DX Z (ip), vehicle: carboxymethylcellulose (CMC)) was 6 of 6 and the survivor count (dose: 12.5 mg/kg/injection, schedule: Q01DX Z (ip), vehicle: methylcellulose (MC)) was 5 of 6. For the same compound, the survivor count [1] was 5 of 6, the survivor count (dose: 25.0 mg/kg/injection, schedule: Q01DX Z (ip), vehicle: carboxymethylcellulose (CMC)) was 4 of 6 and 6 of 6 and the survivor count (dose: 25.0 mg/kg/injection, schedule: Q01DX Z (ip), vehicle: methylcellulose (MC)) was 5 of 6. The survivor count (dose: 50.0 mg/kg/injection, schedule: Q01DX010 (ip), vehicle: saline) was 6 of 6, the survivor count (dose: 50.0 mg/kg/injection, schedule: Q01DX Z (ip), vehicle: carboxymethylcellulose (CMC)) was 0 of 6 and 6 of 6 and the survivor count (dose: 50.0 mg/kg/injection, schedule: Q01DX Z (ip), vehicle: methylcellulose (MC)) was 1 of 6. The survivor count (dose: 100.0 mg/kg/injection, schedule: Q01DX Z (ip), vehicle: methylcellulose (MC)) was 0 of 6.
In the case of `S=c1nc[nH]c2nc[nH]c12`, the T/C (dose: 10.0 mg/kg/injection, schedule: Q01DX Z (ip), vehicle: alkali diluted with saline) is reported as 125 % of control, the T/C (dose: 24.0 mg/kg/injection, schedule: Q01DX Z (ip), vehicle: carboxymethylcellulose (CMC)) is reported as 130 % of control and the T/C [2] is reported as 92, 98, 106 % of control. The survivor count [2] was 0 of 6 and 2 of 6 and the survivor count (dose: 100.0 mg/kg/injection, schedule: Q01DX Z (ip), vehicle: other) was 0 of 6.
For `Nc1ncnc2[nH]ncc12`, the survivor count (dose: 12.0 mg/kg/injection, schedule: Q01DX010 (ip), vehicle: saline) was 6 of 6.
For `CCCSc1ncnc2nc[nH]c12`, the survivor count (dose: 1.0 mg/kg/injection, schedule: Q01DX Z (ip), vehicle: other) was 6 of 6, the survivor count (dose: 350.0 mg/kg/injection, schedule: Q01DX Z (ip), vehicle: other) was 1 of 6 and the survivor count (dose: 500.0 mg/kg/injection, schedule: Q01DX Z (ip), vehicle: other) was 0 of 6.
In the case of `OCC1OC(n2cnc3c(Cl)ncnc32)C(O)C1O` (stereo unspecified), the survivor count (dose: 500.0 mg/kg/injection, schedule: Q01DX010 (ip), vehicle: saline) is reported as 6 of 6.
For `CSc1ncnc2nc[nH]c12`, the survivor count (dose: 1.87 mg/kg/injection, schedule: Q01DX Z (ip), vehicle: carboxymethylcellulose (CMC)) was 6 of 6, the survivor count (dose: 3.75 mg/kg/injection, schedule: Q01DX Z (ip), vehicle: carboxymethylcellulose (CMC)) was 6 of 6 and the survivor count (dose: 250.0 mg/kg/injection, schedule: Q01DX Z (ip), vehicle: carboxymethylcellulose (CMC)) was 2 of 6.
In the case of `CN(C)c1ccc(/C=C/c2ccnc3ccccc23)cc1`, the T/C (dose: 0.62 mg/kg/injection, schedule: Q01DX Z (ip), vehicle: saline) is reported as 125 % of control, the T/C (dose: 1.25 mg/kg/injection, schedule: Q01DX Z (ip), vehicle: saline) is reported as 126 % of control and the survivor count (dose: 20.0 mg/kg/injection, schedule: Q01DX010 (ip), vehicle: saline) is reported as 6 of 6. For the same compound, the survivor count [3] was 6 of 6, the survivor count (dose: 40.0 mg/kg/injection, schedule: Q01DX010 (ip), vehicle: saline) was 6 of 6 and the survivor count [4] was 6 of 6. The survivor count [5] was 5 of 6 and the survivor count (dose: 100.0 mg/kg/injection, schedule: Q01DX Z (ip), vehicle: saline) was 1 of 6.
With `CSc1ncnc2c1ncn2C1OC(CO)C(O)C1O` (stereo unspecified) the T/C (dose: 5.0 mg/kg/injection, schedule: Q01DX010 (ip), vehicle: saline) was 140 % of control, the survivor count [3] was 6 of 6 and the survivor count [4] was 6 of 6.
In the case of `CC1(C)N=C(N)N=C(N)N1c1cccc(Br)c1`, the survivor count (dose: 0.5 mg/kg/injection, schedule: Q01DX Z (ip), vehicle: carboxymethylcellulose (CMC)) is reported as 6 of 6, the survivor count (dose: 1.0 mg/kg/injection, schedule: Q01DX Z (ip), vehicle: carboxymethylcellulose (CMC)) is reported as 6 of 6 and the survivor count (dose: 4.0 mg/kg/injection, schedule: Q01DX Z (ip), vehicle: carboxymethylcellulose (CMC)) is reported as 6 of 6. For the same compound, the survivor count (dose: 100.0 mg/kg/injection, schedule: Q01DX Z (ip), vehicle: carboxymethylcellulose (CMC)) was 2 of 7.
In the case of `Cc1c2oc3c(C)ccc(C(=O)N[C@@H]4C(=O)N[C@H](C(C)C)C(=O)N5CCC[C@H]5C(=O)N(C)CC(=O)N(C)[C@@H](C(C)C)C(=O)O[C@H]4C)c3nc-2c(C(=O)N[C@@H]2C(=O)N[C@H](C(C)C)C(=O)N3CCC[C@H]3C(=O)N(C)CC(=O)N(C)[C@@H](C(C)C)C(=O)O[C@H]2C)c(N)c1=O` (I: [aThr][dV]P[Sar][NMeV] / II: [aThr][dV]P[Sar][NMeV]; ester I:1-I:C, II:1-II:C; linker I:N-II:N via Actinocin(9to1)), the survivor count (dose: 0.05 mg/kg/injection, schedule: Q01DX Z (ip), vehicle: saline) is reported as 0 of 6, the survivor count (dose: 0.1 mg/kg/injection, schedule: Q01DX Z (ip), vehicle: saline) is reported as 0 of 6 and the survivor count (dose: 6.3 micrograms/kg/injection, schedule: Q01DX Z (ip), vehicle: saline) is reported as 5 of 6. For the same compound, the T/C (dose: 12.0 micrograms/kg/injection, schedule: Q01DX Z (ip), vehicle: saline) was 125 % of control, the T/C [6] was 139 and 148 % of control and the survivor count [6] was 6 of 6. The survivor count (dose: 125.0 micrograms/kg/injection, schedule: Q01DX Z (ip), vehicle: saline) was 6 of 6.
With `CCC(=O)O[C@H]1CC[C@H]2[C@@H]3CCC4=CC(=O)CC[C@]4(C)[C@H]3CC[C@]12C` the T/C (dose: 500.0 mg/kg/injection, schedule: Q01DX Z (sc), vehicle: steroid suspending solution) was 98, 106, 108, 110 % of control.
In the case of `CNC=O`, the T/C [5] is reported as 125 % of control, the T/C (dose: 150.0 mg/kg/injection, schedule: Q01DX Z (ip), vehicle: saline) is reported as 138 % of control and the survivor count [7] is reported as 2 of 6. For the same compound, the T/C (dose: 600.0 mg/kg/injection, schedule: Q01DX Z (ip), vehicle: saline) was 126 % of control.
In the case of `CCOC(N)=O`, the T/C [8] is reported as 129 % of control, the survivor count [8] is reported as 6 of 6 and the survivor count (dose: 188.0 mg/kg/injection, schedule: Q01DX Z (ip), vehicle: saline) is reported as 6 of 6. The survivor count (dose: 250.0 mg/kg/injection, schedule: Q01DX010 (ip), vehicle: saline) was 6 of 6, the T/C [9] was 137 % of control and the survivor count [9] was 6 of 6. The survivor count (dose: 375.0 mg/kg/injection, schedule: Q01DX Z (ip), vehicle: saline) was 6 of 6, the T/C [10] was 86, 113, 137 % of control and the survivor count [10] was 6 of 6. The survivor count (dose: 750.0 mg/kg/injection, schedule: Q01DX Z (ip), vehicle: saline) was 6 of 6, the T/C [11] was 86 and 140 % of control and the survivor count [11] was 6 of 6.
`NC(Cc1ccc(N(CCCl)CCCl)cc1)C(=O)O` (stereo unspecified) was tested, and the survivor count (dose: 15.0 mg/kg/injection, schedule: Q01DX Z (ip), vehicle: carboxymethylcellulose (CMC)) was 6 of 6 and the survivor count (dose: 16.0 mg/kg/injection, schedule: Q01DX010 (ip), vehicle: other) was 6 of 6.
For `CCCNc1ncnc2[nH]ncc12`, the survivor count [1] was 6 of 6.
In the case of `N#CCSc1ncnc2nc[nH]c12`, the survivor count (dose: 200.0 mg/kg/injection, schedule: Q01DX Z (ip), vehicle: carboxymethylcellulose (CMC)) is reported as 0 of 6.
`C[C@H](N)C(=O)N[C@@H]1[C@H]2C(=C(O)C[C@@H](O)[C@@H]2O)C(=O)O[C@@H]1C` was tested, and the T/C [7] was 132 and 149 % of control and the T/C [10] was 138 % of control [5 of 6 alive].

— PubChem BioAssay AID284 (DTP/NCI, 2004)
